This note sets out measurements from patent US20240301064A1.

Amino acid sequences for entries named in this document (tags omitted). Residues count along the entry.
UniProt Q15116, residues 25-167: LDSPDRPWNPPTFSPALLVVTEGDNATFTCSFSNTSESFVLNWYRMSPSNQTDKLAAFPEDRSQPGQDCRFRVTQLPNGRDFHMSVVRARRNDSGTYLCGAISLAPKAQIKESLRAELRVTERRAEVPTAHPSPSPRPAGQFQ

In the assay the target is human PD-1 (human) (UniProt Q15116). The assay is described as follows: ELISA on coated huPD-1. (In an ELISA, binding on a coated surface is turned into a signal by an enzyme label.)

No constants are given. Whether binding was seen depends on the method and setting. Some binding calls cover weakened binding; strength is not graded here.

B1: PMAB267 (antibody, human IgG1, kappa, V domains shown)
VH: QVQLVQSGAEVKKPGASVKVSCKASGYSFTTYYMHWVRQAPGQGLEWMGIIQPSGGSTSYAQKFQGRVTMTRDTSTSTVYMELSSLRSEDTAVYYCASGWVYWGQGTLVTVSS
VL: DIQMTQSPSSLSASVGDRVTITCQASRSISSYLAWYQQKPGKAPKLLIYAASSLQSGVPSRFSGSGSGTDFTLTISSLQPEDFATYYCQQSYSTPPTFGPGTKVDIKR
With B1, the binding entry is “binds”.
